# This is one part of the list.
# B1: Flo11 (Saccharomyces cerevisiae), P08640 (protein)
# chain: MQRPFLLAYLVLSLLFNSALGFPTALVPRGSSEGTSCNSIVNGCPNLDFNWHMDQQNIMQYTLDVTSVSWVQDNTYQITIHVKGKENIDLKYLWSLKIIGVTGPKGTVQLYGYNENTYLIDNPTDFTATFEVYATQDVNSCQVWMPNFQIQFEYLQGSAAQYASSWQWGTTSFDLSTGCNNYDNQGHSQTDFPGFYWNIDCDNNCGGTKSSTTTSSTSESSTTTSSTSESSTTTSSTSESSTTTSSTSESSTSSSTTAPATPTTTSCTKEKPTPPTTTSCTKEKPTPPHHDTTPCTKKKTTTSKTCTKKTTTPVPTPSSSTTESSSAPVPTPSSSTTESSSAPVTSSTTESSSAPVPTPSSSTTESSSAPVTSSTTESSSAPVTSSTTESSSAPVPTPSSSTTESSSAPVTSSTTESSSAPVTSSTTESSSAPVTSSTTESSSAPVTSSTTESSSAPVPTPSSSTTESSSAPVTSSTTESSSAPVPTPSSSTTESSSAPVTSSTTESSSAPVPTPSSSTTESSSAPAPTPSSSTTESSSAPVTSSTTESSSAPVPTPSSSTTESSSTPVTSSTTESSSAPVPTPSSSTTESSSAPVPTPSSSTTESSSAPAPTPSSSTTESSSAPVTSSTTESSSAPVPTPSSSTTESSSAPVPTPSSSTTESSSAPVPTPSSSTTESSSAPVTSSTTESSSAPVTSSTTESSSAPVPTPSSSTTESSSAPVPTPSSSTTESSSAPVPTPSSSTTESSSAPVTSSTTESSSAPVPTPSSSTTESSSAPVPTPSSSTTESSSAPVPTPSSSTTESSVAPVPTPSSSSNITSSAPSSTPFSSSTESSSVPVPTPSSSTTESSSAPVSSSTTESSVAPVPTPSSSSNITSSAPSSIPFSSTTESFSTGTTVTPSSSKYPGSQTETSVSSTTETTIVPTKTTTSVTTPSTTTITTTVCSTGTNSAGETTSGCSPKTVTTTVPTTTTTSVTTSSTTTITTTVCSTGTNSAGETTSGCSPKTITTTVPCSTSPSETASESTTTSPTTPVTTVVSTTVVTTEYSTSTKPGGEITTTFVTKNIPTTYLTTIAPTPSVTTVTNFTPTTITTTVCSTGTNSAGETTSGCSPKTVTTTVPCSTGTGEYTTEATTLVTTAVTTTVVTTESSTGTNSAGKTTTGYTTKSVPTTYVTTLAPSAPVTPATNAVPTTITTTECSAATNAAGETTSVCSAKTIVSSASAGENTAPSATTPVTTAIPTTVITTESSVGTNSAGETTTGYTTKSIPTTYITTLIPGSNGAKNYETVATATNPISIKTTSQLATTASASSVAPVVTSPSLTGPLQSASGSAVATYSVPSISSTYQGAANIKVLGNFMWLLLALPVVF
# Assays:
# Assay in all cases: glycan array binding signal (z-score within array); higher = stronger binding
# Conditions in all cases: glycan notation: IUPAC condensed, linker removed
# [1] = molecular target: Gal(b1-4)GlcNAc(b1-2)Man(a1-3)[Gal(b1-4)GlcNAc(b1-2)Man(a1-6)]Man(b1-4)GlcNAc(b1-4)GlcNAc
# Summary of the method: (§1)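 From the Consortium for Functional Glycomics database, 3228 arrays were curated, keeping only those whose protein sequence was available. Binding is given as a within-array Z-score averaged across arrays sharing a protein sequence and across linkers. Negative Z-scores can be read as non-binding.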
# [2] = molecular target: Gal(b1-4)GlcNAc(b1-2)Man(a1-3)[Gal(b1-4)GlcNAc(b1-2)Man(a1-6)]Man(b1-4)GlcNAc(b1-4)[Fuc(a1-6)]GlcNAc
# Summary of the method: as §1
# [3] = molecular target: Gal(b1-4)GlcNAc(b1-2)Man(a1-3)[Gal(b1-4)GlcNAc(b1-2)][GlcNAc(b1-4)]Man(b1-4)GlcNAc(b1-4)GlcNAc
# Summary of the method: as §1
# [4] = molecular target: Gal(b1-4)GlcNAc(b1-2)Man(a1-3)[GlcNAc(b1-2)Man(a1-6)]Man(b1-4)GlcNAc(b1-4)GlcNAc
# Summary of the method: as §1
# [5] = molecular target: Gal(b1-4)GlcNAc(b1-2)Man(a1-3)[Man(a1-6)]Man(b1-4)GlcNAc(b1-4)GlcNAc
# Summary of the method: as §1
# [6] = molecular target: Gal(b1-4)GlcNAc(b1-2)Man(a1-6)Man(b1-4)GlcNAc(b1-4)GlcNAc
# Summary of the method: as §1
# [7] = molecular target: Gal(b1-4)GlcNAc(b1-2)Man(a1-6)[GlcNAc(b1-2)Man(a1-3)]Man(b1-4)GlcNAc(b1-4)GlcNAc
# Summary of the method: as §1
# [8] = molecular target: Gal(b1-4)GlcNAc(b1-2)Man(a1-6)[Man(a1-3)]Man(b1-4)GlcNAc(b1-4)GlcNAc
# Summary of the method: as §1
# [9] = molecular target: Gal(b1-4)GlcNAc(b1-2)[Gal(b1-4)GlcNAc(b1-4)]Man(a1-3)[Gal(b1-4)GlcNAc(b1-2)Man(a1-6)]Man(b1-4)GlcNAc(b1-4)GlcNAc
# Summary of the method: as §1
# [10] = molecular target: Gal(b1-4)GlcNAc(b1-2)[Gal(b1-4)GlcNAc(b1-4)]Man(a1-3)[Gal(b1-4)GlcNAc(b1-2)[Gal(b1-4)GlcNAc(b1-6)]Man(a1-6)]Man(b1-4)GlcNAc(b1-4)GlcNAc
# Summary of the method: as §1
# [11] = molecular target: Gal(b1-4)GlcNAc(b1-2)[Gal(b1-4)GlcNAc(b1-4)]Man(a1-3)[GlcNAc(b1-4)][Gal(b1-4)GlcNAc(b1-2)Man(a1-6)]Man(b1-4)GlcNAc(b1-4)GlcNAc
# Summary of the method: as §1
# [12] = molecular target: Gal(b1-4)GlcNAc(b1-2)[Gal(b1-4)GlcNAc(b1-4)]Man(a1-3)[GlcNAc(b1-4)][Gal(b1-4)GlcNAc(b1-2)[Gal(b1-4)GlcNAc(b1-6)]Man(a1-6)]Man(b1-4)GlcNAc(b1-4)GlcNAc
# Summary of the method: as §1
# [13] = molecular target: Gal(b1-4)GlcNAc(b1-2)[Gal(b1-4)GlcNAc(b1-6)]Man(a1-6)[Gal(b1-4)GlcNAc(b1-2)Man(a1-3)]Man(b1-4)GlcNAc(b1-4)GlcNAc
# Summary of the method: as §1
# [14] = molecular target: Gal(b1-4)GlcNAc(b1-2)[Gal(b1-4)GlcNAc(b1-6)]Man(a1-6)[GlcNAc(b1-4)][Gal(b1-4)GlcNAc(b1-2)Man(a1-3)]Man(b1-4)GlcNAc(b1-4)GlcNAc
# Summary of the method: as §1
# [15] = molecular target: Gal(b1-4)GlcNAc(b1-3)Gal(b1-3)GlcNAc
# Summary of the method: as §1
# [16] = molecular target: Gal(b1-4)GlcNAc(b1-3)Gal(b1-4)Glc
# Summary of the method: as §1
# [17] = molecular target: Gal(b1-4)GlcNAc(b1-3)Gal(b1-4)GlcNAc
# Summary of the method: as §1
# [18] = molecular target: Gal(b1-4)GlcNAc(b1-3)Gal(b1-4)GlcNAc(b1-3)Gal(b1-4)GlcNAc
# Summary of the method: as §1
# [19] = molecular target: Gal(b1-4)GlcNAc(b1-3)Gal(b1-4)[Fuc(a1-3)GlcNAc(b1-6)]Gal(b1-4)Glc
# Summary of the method: as §1
# [20] = molecular target: Gal(b1-4)GlcNAc(b1-3)Gal(b1-4)[Fuc(a1-3)]GlcNAc(b1-3)Gal(b1-4)[Fuc(a1-3)]GlcNAc
# Summary of the method: as §1
# [21] = molecular target: Gal(b1-4)GlcNAc(b1-3)GalNAc
# Summary of the method: as §1
# [22] = molecular target: Gal(b1-4)GlcNAc(b1-3)[Gal(b1-4)GlcNAc(b1-6)]Gal(b1-4)GlcNAc
# Summary of the method: as §1
# [23] = molecular target: Gal(b1-4)GlcNAc(b1-3)[Gal(b1-4)GlcNAc(b1-6)]GalNAc
# Summary of the method: as §1
# [24] = molecular target: Gal(b1-4)GlcNAc(b1-3)[GlcNAc(b1-6)]Gal(b1-4)GlcNAc
# Summary of the method: as §1
# [25] = molecular target: Gal(b1-4)GlcNAc(b1-6)Gal(b1-4)GlcNAc
# Summary of the method: as §1
# [26] = molecular target: Gal(b1-4)GlcNAc(b1-6)GalNAc
# Summary of the method: as §1
# [27] = molecular target: Gal(b1-4)GlcNAc(b1-6)[Gal(b1-3)]GalNAc
# Summary of the method: as §1
# Gal(b1-6)Gal = molecular target: Gal(b1-6)Gal
# Summary of the method: as §1
# Gal3S(b1-3)GalNAc = molecular target: Gal3S(b1-3)GalNAc
# Summary of the method: as §1
# Gal3S(b1-3)GlcNAc = molecular target: Gal3S(b1-3)GlcNAc
# Summary of the method: as §1
binder,measurement,setting,value
B1,glycan array binding signal (z-score),[1],-0.273
same,glycan array binding signal (z-score),[2],0.022
same,glycan array binding signal (z-score),[3],-1.67
same,glycan array binding signal (z-score),[4],-0.132
same,glycan array binding signal (z-score),[5],-0.929
same,glycan array binding signal (z-score),[6],0.45
same,glycan array binding signal (z-score),[7],0.131
same,glycan array binding signal (z-score),[8],0.152
same,glycan array binding signal (z-score),[9],0.506
same,glycan array binding signal (z-score),[10],-0.404
same,glycan array binding signal (z-score),[11],-0.919
same,glycan array binding signal (z-score),[12],1.02
same,glycan array binding signal (z-score),[13],-0.682
same,glycan array binding signal (z-score),[14],0.433
same,glycan array binding signal (z-score),[15],-0.09
same,glycan array binding signal (z-score),[16],-0.307
same,glycan array binding signal (z-score),[17],-0.667
same,glycan array binding signal (z-score),[18],-0.265
same,glycan array binding signal (z-score),[19],-1.05
same,glycan array binding signal (z-score),[20],0.018
same,glycan array binding signal (z-score),[21],0.011
same,glycan array binding signal (z-score),[22],-0.658
same,glycan array binding signal (z-score),[23],-0.448
same,glycan array binding signal (z-score),[24],-0.912
same,glycan array binding signal (z-score),[25],-0.383
same,glycan array binding signal (z-score),[26],-0.773
same,glycan array binding signal (z-score),[27],-0.578
same,glycan array binding signal (z-score),Gal(b1-6)Gal,-0.852
same,glycan array binding signal (z-score),Gal3S(b1-3)GalNAc,-0.976
same,glycan array binding signal (z-score),Gal3S(b1-3)GlcNAc,0.506

# Reprinted at random: 2 entries already listed.
binder,measurement,setting,value
B1,glycan array binding signal (z-score),[20],0.018
same,glycan array binding signal (z-score),[23],-0.448

# Reference: the supplement of paper PMC8728848
